Data on one molecule can be found in PMC7864068, “α2-Macroglobulin-like protein 1 can conjugate and inhibit proteases through their hydroxyl groups, because of an enhanced reactivity of its thiol ester” (The Journal of Biological Chemistry, 2021).

By UniProt entry, the sequences of proteins in these tests, tags left out. Where a name states a change or a piece, a line headed by the entry shows the natural chain unless it says otherwise.
UniProt P08246: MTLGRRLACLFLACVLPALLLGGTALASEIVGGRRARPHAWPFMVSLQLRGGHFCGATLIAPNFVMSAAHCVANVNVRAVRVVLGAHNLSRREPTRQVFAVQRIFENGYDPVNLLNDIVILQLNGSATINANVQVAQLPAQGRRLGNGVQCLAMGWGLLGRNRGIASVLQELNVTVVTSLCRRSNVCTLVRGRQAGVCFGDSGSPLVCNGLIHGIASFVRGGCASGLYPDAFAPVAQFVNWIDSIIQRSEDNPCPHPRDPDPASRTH

This experiment concerns the target Human neutrophil elastase (HNE) (human) (UniProt P08246). Kind of experiment: reducing SDS-PAGE of covalent conjugation products + Edman degradation and LC-MS/MS of bands; A2ML1 digested with HNE, CatG (up to 1:1 molar ratio protease:A2ML1, HBS with and without 50 mM BAPN, 15 min 37°C, stopped with 2 mM PMSF) or GluC (conditions not told); Fig. S2; both purified.

No constants are given. Whether binding was seen depends on the method and setting. Binding can be weak; no strength is given.

B1: Human α2-macroglobulin-like protein 1 (A2ML1), recombinant wild type (natural protein, UniProt A8K2U0-1 18-1454, looked up)
chain: EELPNYLVTLPARLNFPSVQKVCLDLSPGYSDVKFTVTLETKDKTQKLLEYSGLKKRHLHCISFLVPPPAGGTEEVATIRVSGVGNNISFEEKKKVLIQRQGNGTFVQTDKPLYTPGQQVYFRIVTMDSNFVPVNDKYSMVELQDPNSNRIAQWLEVVPEQGIVDLSFQLAPEAMLGTYTVAVAEGKTFGTFSVEEYVLPKFKVEVVEPKELSTVQESFLVKICCRYTYGKPMLGAVQVSVCQKANTYWYREVEREQLPDKCRNLSGQTDKTGCFSAPVDMATFDLIGYAYSHQINIVATVVEEGTGVEANATQNIYISPQMGSMTFEDTSNFYHPNFPFSGKIRVRGHDDSFLKNHLVFLVIYGTNGTFNQTLVTDNNGLAPFTLETSGWNGTDVSLEGKFQMEDLVYNPEQVPRYYQNAYLHLRPFYSTTRSFLGIHRLNGPLKCGQPQEVLVDYYIDPADASPDQEISFSYYLIGKGSLVMEGQKHLNSKKKGLKASFSLSLTFTSRLAPDPSLVIYAIFPSGGVVADKIQFSVEMCFDNQVSLGFSPSQQLPGAEVELQLQAAPGSLCALRAVDESVLLLRPDRELSNRSVYGMFPFWYGHYPYQVAEYDQCPVSGPWDFPQPLIDPMPQGHSSQRSIIWRPSFSEGTDLFSFFRDVGLKILSNAKIKKPVDCSHRSPEYSTAMGAGGGHPEAFESSTPLHQAEDSQVRQYFPETWLWDLFPIGNSGKEAVHVTVPDAITEWKAMSFCTSQSRGFGLSPTVGLTAFKPFFVDLTLPYSVVRGESFRLTATIFNYLKDCIRVQTDLAKSHEYQLESWADSQTSSCLCADDAKTHHWNITAVKLGHINFTISTKILDSNEPCGGQKGFVPQKGRSDTLIKPVLVKPEGVLVEKTHSSLLCPKGKVASESVSLELPVDIVPDSTKAYVTVLGDIMGTALQNLDGLVQMPSGCGEQNMVLFAPIIYVLQYLEKAGLLTEEIRSRAVGFLEIGYQKELMYKHSNGSYSAFGERDGNGNTWLTAFVTKCFGQAQKFIFIDPKNIQDALKWMAGNQLPSGCYANVGNLLHTAMKGGVDDEVSLTAYVTAALLEMGKDVDDPMVSQGLRCLKNSATSTTNLYTQALLAYIFSLAGEMDIRNILLKQLDQQAIISGESIYWSQKPTPSSNASPWSEPAAVDVELTAYALLAQLTKPSLTQKEIAKATSIVAWLAKQHNAYGGFSSTQDTVVALQALAKYATTAYMPSEEINLVVKSTENFQRTFNIQSVNRLVFQQDTLPNVPGMYTLEASGQGCVYVQTVLRYNILPPTNMKTFSLSVEIGKARCEQPTSPRSLTLTIHTSYVGSRSSSNMAIVEVKMLSGFSPMEGTNQLLLQQPLVKKVEFGTDTLNIYLDELIKNTQTYTFTISQSVLVTNLKPATIKVYDYYLPDEQATIQYSDPCE
modifications: internal thiol ester in which Gln-973 participates
As for B1, the binding entry is given as “binds”.
